# Measured values taken from patent publication US10729820B2, “Methods and processes for application of drug delivery polymeric coatings” (Ariste Medical, LLC, priority 2014, dated 2020).
# Where a name gives a salt, the structure may show the parent alone. For at least one compound, name, drawing or mass did not settle the structure.
# Assay: Drug survival during polymerization and post cure loading, BPDM/NTG-GMA methacrylate coating on DualMesh ePTFE, HPLC of methanol extracts (Example 4)
# Assay type: physicochemical
# Conditions: drugs in casting solution, theoretical 400 μg/cm^2 each drug, methanol extract
# Description: An acetone:ethanol:BPDM solution:NTG-GMA solution in 1:1:1:1 volume ratio was used to coat DualMesh Biomaterial with drugs both present during the polymerization process and loaded into the polymer network after curing had been performed. Circular 0.785 cm^2 samples of DualMesh were coated. In the version were drugs were included in the casting solution, both minocycline hydrochloride and rifampin were incorporated at levels such if no degradation were to have occurred each drug would have been loaded at a bulk surface area density of 400 μg/cm^2. The post-cure loaded version was created by coating the DualMesh with the same amount of polymer coating, and then submerging the specimen in a 5 mL methanol bath containing each drug at 10 mg/mL overnight (˜18 hours) at 4° C. After soaking in the methanol/drug solution, specimens were retrieved from the loading solution and allowed to air dry. Once dried they were passed through two rinse solutions using the following technique: forceps were used to hold specimens while contacting a minimal amount of the surface, vigorously shake the specimen in a 15 mL methanol rinse for 15 seconds, move specimen to a second 15 mL methanol bath and vigorously shake for an additional 15 seconds, and finally allow to air dry. Shaking was performed by moving the forceps back while holding the specimen submerged in the rinse. […]
smiles,measurement,value
"CN(C)c1ccc(O)c2c1C[C@H]1C[C@H]3[C@H](N(C)C)C(O)=C(C(N)=O)C(=O)[C@@]3(O)C(O)=C1C2=O [Minocycline, minocycline hydrochloride]",average drug survival during the polymerization process,48%
